Assay results as given in article PMC9430589.
These are yes or no findings as the source states them, for the method shown. Binding seen in cells or lysates may run through a third protein. Where a sequence is shown, tags or fusion partners need not be part of it.

Target: T1, C-terminus His6-tagged PNPase (polynucleotide phosphorylase, DR_2063) of D. radiodurans (D. radiodurans) (UniProt Q9RSR1)
T1 sequence: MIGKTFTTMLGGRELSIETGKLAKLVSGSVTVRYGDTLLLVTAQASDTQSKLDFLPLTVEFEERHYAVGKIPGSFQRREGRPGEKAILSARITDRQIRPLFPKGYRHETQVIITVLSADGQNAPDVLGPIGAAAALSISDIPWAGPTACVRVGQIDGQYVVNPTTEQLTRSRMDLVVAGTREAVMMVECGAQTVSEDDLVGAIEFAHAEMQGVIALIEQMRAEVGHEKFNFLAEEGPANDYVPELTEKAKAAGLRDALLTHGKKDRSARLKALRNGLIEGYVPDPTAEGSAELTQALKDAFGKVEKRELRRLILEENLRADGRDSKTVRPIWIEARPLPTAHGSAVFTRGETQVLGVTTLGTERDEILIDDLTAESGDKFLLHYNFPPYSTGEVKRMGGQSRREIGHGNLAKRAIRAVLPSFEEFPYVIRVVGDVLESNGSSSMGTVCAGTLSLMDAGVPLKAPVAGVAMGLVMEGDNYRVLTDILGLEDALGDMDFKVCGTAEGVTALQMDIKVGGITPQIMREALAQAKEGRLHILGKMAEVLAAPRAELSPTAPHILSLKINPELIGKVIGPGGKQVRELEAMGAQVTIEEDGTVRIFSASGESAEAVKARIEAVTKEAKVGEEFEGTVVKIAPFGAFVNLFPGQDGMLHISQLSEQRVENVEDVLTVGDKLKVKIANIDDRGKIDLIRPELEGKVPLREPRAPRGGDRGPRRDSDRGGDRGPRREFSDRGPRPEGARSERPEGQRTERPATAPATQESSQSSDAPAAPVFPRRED
Assay: co-IP; C-terminal His6-tagged PNPase from pRADgro as bait in D. radiodurans strains with chromosomal 3×FLAG-tagged RhlB, RpsA or Rho; formaldehyde cross-linking, sonication; 500 μg lysate treated with or without RNase A and T1, then Ni-NTA magnetic beads; Western blot with anti-FLAG antibody; His6 tag alone as control

binding: no binding
B1: Rho-3×FLAG (chromosomally tagged transcription termination factor Rho, DR_1338) (protein, UniProt P52153 1-426)
chain: MTVTEVAPQALPFQELQEKILPELHLLAAGLGIENYRKLKKDALALAIMEKQADAEGQSLARGYLDITSDGYGFLQADLLDPASRSVLVTAGVIKQYHLRTGDEVIGRARKPRENERYGSLVRVEAVNGLDPEAARQRPRFDDLTPTFPDQQLVLEDPSTDDGLSLRVVDLLVPIGRGQRALIVAPPKAGKTTLLKKIANSITKNYPDVTVMVLLVDERPEEVTDFRESVQGAQVIASTFDEPPQHHVRVAEFVHERARRIVEEGGHVVILLDSITRLARANNLVTPPTGRTLSGGLDSNALHWPKRFLGAARNIREGGSLTILATALVETGSRMDDVIFEEFKGTGNAELVLSRRLEERRIFPALDILKSGTRREELLLQPEVLKKMWLLRKVISDMDPADAMEMLLGRMGKTRNNVEFLAALAG
